Among the data in PMC5824958 are binding values, retold here.

Results are given in words; binding and its absence hold for the method and conditions named. In cells and extracts the contact can be indirect. A yes stands for co-enrichment or nearness to the bait. Other partners may have been found.

In the test the target is T1, BRI2 (integral membrane protein 2B) (rat (endogenous in brain)) (UniProt Q5XIE8).
T1 sequence: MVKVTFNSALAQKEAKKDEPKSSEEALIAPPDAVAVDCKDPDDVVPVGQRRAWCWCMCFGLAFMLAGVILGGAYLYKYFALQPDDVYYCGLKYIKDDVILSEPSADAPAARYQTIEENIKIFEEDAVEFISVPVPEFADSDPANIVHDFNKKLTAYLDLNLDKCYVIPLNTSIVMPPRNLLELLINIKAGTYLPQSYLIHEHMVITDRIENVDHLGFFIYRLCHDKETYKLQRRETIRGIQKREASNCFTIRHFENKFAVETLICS
Description: affinity purification with mass spectrometry; mouse anti-BRI2 antibody (N-terminal region) on Dynabeads Protein G; pre-cleared rat cerebral cortex, hippocampus and cerebellum lysates (50 mM Tris-HCl pH 8.0, 120 mM NaCl, 4% CHAPS), overnight at 4 °C; co-precipitated proteins identified by nano-HPLC-MS/MS; hits absent from the two mock IPs or with a PSM ratio >= 2.0.

B1: Disks large-associated protein 3 (protein, UniProt P97838 1-977)
chain: MRGYHGDRGSHPRPARFADQQHMDVGPAARAPYLLGSREAFSTEPRFCAPRAGLGHLSPEGPLSLSEGPSSVGPEGGPGGVGAGGSSSTFPRMYPGQGPFDTCEDCVGHPQGKGATRLLPTFLDQFEKQLPVQQDGFHTLPYQRGPAGPGPGPGSGAAPEARSESPSRIRHLVHSVQKLFAKSHSLEAPGKRDYNGPKAEGRSSSGGDSYSGPGSGGPPTSHHHHHHHHHHHHQSRHGKRSKSKDRKGDGRHQTKATGWWSSDDNLDSDSGFLGGRPPGEPGGPFCLDAPDGSYRDLSFKGRSGGSEGRCLACTGMSMSLDGQSVKRSAWHTMMVSQGRDGYPGAGPGKGLLGPETKAKARTYHYLQVPQDDWGGYPTGGKDGEIPCRRMRSGSYIKAMGDEESGDSDGSPKTSPKALARRFASRRSSSVDTARINCCVPPRIHPRSSIPGYSRSLTTGQLSEEFNQQLEAVCGSVFGELESQAVDALDLPGCFRMRSHSYLRAIQAGCSQDDDCLPLLAAPASVSGRPGSSFNFRKAPPPIPPGSQAPPRISITAQSSTDSAHESFTAAEGPARRCSSADGLDGPTMGARTLELAPVPPRASPKPPTLIIKTIPGREELRSLARQRKWRPSIGVQVETISDSDTENRSRREFHSIGVQVEEDKRRARFKRSNSVTAGVQADLELEGLAGLATVATEDKALQFGRPFQRQASEPQPGPRAPTYSVFRTVHTQGQWAYREGYPLPYEPPATDGSPGPPPVPAPGPGSGRRDSWMERGSRSLPDSGRTSPCPRDGEWFIKMLRAEVEKLEHWCQQMEREAEDYELPEEILEKIRSAVGSTQLLLSQKVQQFFRLCQQSLDPTAFPVPTFQDLAGFWDLLQLSIEDVTLKFLELQQLKANSWKLLEPKEEKKVPPPIPKKPSRGRGVPVKERSLDSVDRQRQEARKRLLAAKRAASFRHSSATESADSIEIYIPEAQTRL
Turning to B1, the binding entry is listed as “binds”.

B2: Contactin-associated protein 1 (protein, UniProt P97846 21-1381)
chain: WGYYGCNEELVGPLYARSLGASSYYGLFTTARFARLHGISGWSPRIGDPNPWLQIDLMKKHRIRAVATQGAFNSWDWVTRYMLLYGDRVDSWTPFYQQGHNATFFGNVNDSAVVRHDLHYHFTARYIRIVPLAWNPRGKIGLRLGIYGCPYTSNILYFDGDDAISYRFQRGASQSLWDVFAFSFKTEEKDGLLLHTEGSQGDYVTLELQGAHLLLHMSLGSSPIQPRPGHTTVSAGGVLNDLSWHYVRVDRYGREANLTLDGYVHRFVLNGDFERLNLENEIFIGGLVGAARKNLAYRHNFRGCIENVIYNRINIAEMAVQRHSRITFEGNVAFRCLDPVPHPINFGGPHNFVQVPGFPRRGRLAVSFRFRTWDLTGLLLFSRLGDGLGHVELMLSEGQVNVSIAQTGRKKLQFAAGYRLNDGFWHEVNFVAQENHAVISIDDVEGAEVRVSYPLLIRTGTSYFFGGCPKPASRWGCHSNQTAFHGCMELLKVDGQLVNLTLVEFRKLGYFAEVLFDTCGITDRCSPNMCEHDGRCYQSWDDFICYCELTGYKGVTCHEPLYKESCEAYRLSGKYSGNYTIDPDGSGPLKPFVVYCDIRENRAWTVVRHDRLWTTRVTGSSMDRPFLGAIQYWNASWEEVSALANASQHCEQWIEFSCYNSRLLNTAGGYPYSFWIGRNEEQHFYWGGSQPGIQRCACGLDQSCIDPALHCNCDADQPQWRTDKGLLTFVDHLPVTQVVIGDTNRSSSEAQFFLRPLRCYGDRNSWNTISFRTGAALRFPPIRANHSLDVSFYFRTSAPSGVFLENMGGPFCQWRRPYVRVELNTSRDVVFAFDIGNGDENLTVHSDDFEFNDDEWHLVRAEINVKQARLRVDHRPWVLRPMPLQTYIWLEYDQPLYVGSAELKRRPFVGCLRAMRLNGVTLNLEGRANASEGTFPNCTGHCTHPRFPCFHGGRCVERYSYYTCDCDLTAFDGPYCNHDIGGFFETGTWMRYNLQSALRSAAQEFSHMLSRPVPGYEPGYIPGYDTPGYVPGYHGPGYRLPDYPRPGRPVPGYRGPVYNVTGEEVSFSFSTSSAPAVLLYVSSFVRDYMAVLIKEDGTLQLRYQLGTSPYVYQLTTRPVTDGQPHSVNITRVYRNLFIQVDYFPLTEQKFSLLVDSQLDSPKALYLGRVMETGVIDPEIQRYNTPGFSGCLSGVRFNNVAPLKTHFRTPRPMTAELAEAMRVQGELSESNCGAMPRLVSEVPPELDPWYLPPDFPYYHDDGWIAILLGFLVAFLLLGLVGMLVLFYLQNHRYKGSYHTNEPKATHDSHPGGKAPLPPSGPAQAPAPTPAPTQVPTPAPAPASGPGPRDQNLPQILEESRSE
Turning to B2, the binding entry was “binds”.

B3: Copine-9 (protein, UniProt Q5BJS7 1-553)
chain: MSLGGASERSVPATKIEITVSCRNLLDLDTFSKSDPMVVLHTQSRASQEWREFGRTEVIDNTLNPDFVRKFVLDYFFEEKQNLRFDVYNVDSKANISKPKDFLGQAFLALGEVIGGQGSRVERPLTGVPGKKCGTILLTAEELSNCRDIATMQLCANKLDKKDFFGKSDPFLVFYRSNEDGTFTICHKTEVVKNTLNPVWQPFSIPVRALCNGDYDRTVKIDVYDWDRDGSHDFIGEFTTSYRELSKAQNQFTVYEVLNPRKKCKKKKYTNSGTVTLLSFSVDSEFTFVDYIKGGTQLNFTVAIDFTASNGNPLQPTSLHYMSPYQLSAYAMALKAVGEIIQDYDSDKLFPAYGFGAKLPPEGRISHQFPLNNNDEDPNCAGIEGVLESYFQSLRTVQLYGPTYFAPVINQVARAAAKISDGSQYYVLLIITDGVISDMTQTKEAIVSASSLPMSIIIVGVGPAMFEAMEELDGDDVRVSSRGRYAERDIVQFVPFRDYVDRSGNQVLSMARLAKDVLAEIPEQLLSYMRTRDIQPRPPPPANPNPTSAPEQP
With B3, the binding entry is recorded as “binds”.

B4: Amphiphysin (protein, UniProt O08838 1-683)
chain: MADIKTGIFAKNVQKRLNRAQEKVLQKLGKADETKDEQFEEYVQNFKRQEAEGTRLQRELRGYLAAIKGMQEASMKLTESLHEVYEPDWYGREDVKMVGEKCDVLWEDFHQKLVDGSLLTLDTYLGQFPDIKNRIAKRSRKLVDYDSARHHLEALQSSKRKDESRISKAEEEFQKAQKVFEEFNVDLQEELPSLWSRRVGFYVNTFKNVSSLEAKFHKEIAVLCHKLYEVMTKLGDQHADKAFSIQGAPSDSGPLRIAKTPSPPEEASPLPSPTASPNHTLAPASPAPVRPRSPSQTRKGPPVPPLPKVTPTKELQQENIINFFEDNFVPEINVTTPSQNEVLEVKKEETLLDLDFDPFKPDVTPAGSAAATHSPMSQTLPWDLWTTSTDLVQPASGGSFNDFTQPQDTSLFTMQTDQNMAETEQALPTEPQAEEPPTTAAAPTAGLDLGLEMEEPKEEAAIPPGTDAGETVGTEGSTGEEAEAEKAALPAGEGESPEGAKIDVESTELASSESPQAAELEAGAPQEKVIPSVVIEPASNHEGEEHQETTTGTETREATEDVAPQGPAGEKQELATEPTPLDSQAATPAPAGAVDASLSAGDAAQELPPGFLYKVETLHDFEAANSDELTLQRGDVVLVVPSDSEADQDAGWLVGVKESDWLQYRDLATYKGLFPENFTRHLE
For the molecule B4, the binding entry is given as “binds”.

B5: Dynamin-1 (protein, UniProt P21575 1-864)
chain: MGNRGMEDLIPLVNRLQDAFSAIGQNADLDLPQIAVVGGQSAGKSSVLENFVGRDFLPRGSGIVTRRPLVLQLVNSTTEYAEFLHCKGKKFTDFEEVRLEIEAETDRVTGTNKGISPVPINLRVYSPHVLNLTLVDLPGMTKVPVGDQPPDIEFQIRDMLMQFVTKENCLILAVSPANSDLANSDALKIAKEVDPQGQRTIGVITKLDLMDEGTDARDVLENKLLPLRRGYIGVVNRSQKDIDGKKDITAALAAERKFFLSHPSYRHLADRMGTPYLQKVLNQQLTNHIRDTLPGLRNKLQSQLLSIEKEVDEYKNFRPDDPARKTKALLQMVQQFAVDFEKRIEGSGDQIDTYELSGGARINRIFHERFPFELVKMEFDEKELRREISYAIKNIHGIRTGLFTPDLAFEATVKKQVQKLKEPSIKCVDMVVSELTSTIRKCSEKLQQYPRLREEMERIVTTHIREREGRTKEQVMLLIDIELAYMNTNHEDFIGFANAQQRSNQMNKKKTSGNQDEILVIRKGWLTINNIGIMKGGSKEYWFVLTAENLSWYKDDEEKEKKYMLSVDNLKLRDVEKGFMSSKHIFALFNTEQRNVYKDYRQLELACETQEEVDSWKASFLRAGVYPERVGDKEKASETEENGSDSFMHSMDPQLERQVETIRNLVDSYMAIVNKTVRDLMPKTIMHLMINNTKEFIFSELLANLYSCGDQNTLMEESAEQAQRRDEMLRMYHALKEALSIIGDINTTTVSTPMPPPVDDSWLQVQSVPAGRRSPTSSPTPQRRAPAVPPARPGSRGPAPGPPPAGSALGGAPPVPSRPGASPDPFGPPPQVPSRPNRAPPGVPSRSGQASPSRPESPRPPFDL
Take B5: the binding entry is “binds”.

B6: Disks large-associated protein 2 (protein, UniProt P97837 1-1059)
chain: MGTAQVLPGILQKHCCILPDRNTESQCTLCGEPEEEEGGDLAQPGLSFPGPAEEDIDQQYSWSPTQHFSEERYSPAPRNMKGLTGSRNQPQLCVGHTCGLSPTDECEHPHDHVRHGPDVRQPYLLSPAESCPMDHHRCSPRSSVHSECMMMPVMLGDHVSSSTFPRMHYSSHYDTRDDCATSHASTKVNRIPANLLDQFEKQLPLHRDGFHTLQYHRASAATEQRNESPGRIRHLVHSVQKLFTKSHSLEGSSKSNINGTKSEGRMDDHHQSHLSKHSKRSKSKERKPESKHKSGMSSWWSSDDNLDSDSTYRTPSVAHRHHMDHIPHCYPEALQSPFGDLSLKTSKSNSDVKCSACEGLALTPDTRYMKRSSWSTLTVSQAKEAYRKSSLNLDKPLVHPEIKPSLQPCHYLQVPQDDWGAYPTGGKEEEIPCRRMRSGSYIKAMGDEESGESDSSPKTSPTVALRPEPLLKSIIQRPLGDHQTQSYLQAATEVPVGHSLDPSVNYNSPKFRSRNQSYMRAVSTLSQASCVSQMSEAEVNGQFESVCESVFSEVESQAMDALDLPGCFRTRSHSYLRAIQAGYSQDDECIPVMTPSNMTSTIRSTAAVSYTNYKKTPPPVPPRTTSKPLISVTAQSSTESTQDAYQDSRAQRMSPWPQDSRGGLYNSMDSLDSNKAMNLALESAAAQRHAADTQSSSTRSIDKAVLVSKAEELLKSRCSSIGVQDSEFPDHQPYPRSDVETATDSDTESRGLREYHSVGVQVEDEKRHGRFKRSNSVTAAVQADLELEGFPGHVSMEDKGLQFGSSFQRHSEPSTPTQYGALRTVRTQGLFSYREDYRTQVDTSTLPPPDPWLEPSLDTVETGRMSPCRRDGSWFLKLLHTETKKMEGWCKEMEREAEENDLSEEILGKIRSAVGSAQLLMSQKFQQFYWLCQQNMDPSAMPRPTSQDLAGYWDMLQLSVEDVSMKFDELHQLKLNDWKIMESPERKEERKIPPPIPKKPPKGKFPITREKSLDLPDRQRQEARRRLMAAKRAASFRQNSATERADSIEIYIPEAQTRL
On to B6, for which the binding result was “binds”.
